# According to PMC9576733, “Cryo-EM structures of the translocational binary toxin complex CDTa-bound CDTb-pore from Clostridioides difficile” (Nature Communications, 2022):
# Amino acid sequences for entries named in this document (tags omitted). Residues count along the entry.
# UniProt O32739, residues 214-876: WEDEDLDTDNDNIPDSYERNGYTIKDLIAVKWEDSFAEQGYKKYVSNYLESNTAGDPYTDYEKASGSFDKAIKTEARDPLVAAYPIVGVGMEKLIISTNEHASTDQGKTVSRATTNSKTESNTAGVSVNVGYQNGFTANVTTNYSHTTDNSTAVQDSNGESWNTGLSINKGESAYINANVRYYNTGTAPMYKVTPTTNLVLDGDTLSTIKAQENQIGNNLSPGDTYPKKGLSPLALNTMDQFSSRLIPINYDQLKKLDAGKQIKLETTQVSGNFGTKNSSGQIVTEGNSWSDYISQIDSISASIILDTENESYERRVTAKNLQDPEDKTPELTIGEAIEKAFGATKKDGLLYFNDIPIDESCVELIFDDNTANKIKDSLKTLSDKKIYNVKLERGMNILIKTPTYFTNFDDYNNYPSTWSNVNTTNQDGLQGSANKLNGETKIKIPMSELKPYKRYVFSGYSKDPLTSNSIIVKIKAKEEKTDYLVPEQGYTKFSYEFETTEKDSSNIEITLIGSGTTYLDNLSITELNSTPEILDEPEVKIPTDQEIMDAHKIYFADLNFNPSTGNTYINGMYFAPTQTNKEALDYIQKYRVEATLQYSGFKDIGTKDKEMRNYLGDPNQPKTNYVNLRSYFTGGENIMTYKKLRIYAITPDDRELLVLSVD
# Results are given in words; binding and its absence hold for the method and conditions named. Some binding calls cover weakened binding; strength is not graded here.
# Molecular target: CDTb-pore, wild type (chymotrypsin-activated CDTb oligomer) (Clostridioides difficile) (UniProt O32739)
# Test: density gradient ultracentrifugation; data not shown; with five-fold more LMNG and without LMNG; di-heptamer and heptamer formation; both purified
substance,measurement,value
"CDTb-pore, wild type (chymotrypsin-activated CDTb oligomer) (from UniProt O32739 214-876) (complex)",binding,binds
